Assay results as given in PubChem BioAssay AID1347075 (National Center for Advancing Translational Sciences (NCATS), 2019).
In all, about 400,000 compounds went through this assay and about 5,500 (1.4%) were called active. This list was built around the results that the source calls inconclusive (neither active nor inactive); the mix of calls is not that of the screen. The call rests on the fitted dose curve; in most records, active means well fitted cell-killing curve with a large enough effect; inconclusive means small, poorly fitted or top-dose-only effect, or effect the other way; inactive means flat fitted curve, though single readings scatter. Where the call is inconclusive, the potency comes from a doubtful curve fit.

Test: qHTS assay for MDR1-selective chemotherapeutics: Primary screen using the parental adenocarcinoma cell KB-3-1; further: nearly all actives have a fitted effect of over 60% in size
Settings: KB-3-1 viability, CellTiter-Glo ATP luminescence, 72 h; activity change, negative = cytotoxic: at 46.1 µM (top of the series)
Outline: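 72 h, 37 °C compound treatment of KB-3-1 parental cells; CellTiter-Glo added, 10 min, luminescence read. Data corrected against DMSO-only plates and normalized before curve fitting.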
On the % scale 0 is the no-effect control and ±100 the full control effect; potency means the concentration at half of the fitted maximal effect.

Q: Which Potency does the source give for `CCc1ccccc1N(C(=O)c1snc(C(N)=O)c1N)C(C(=O)NCC1CCCO1)c1c[nH]c2ccccc12` (stereo unspecified) here?
A: inconclusive: 23.1 µM [cytotoxic, single point]

Q: Which Potency does the source give for `CCN1C(=O)/C(=C/C=C2/Sc3ccccc3N2CCO)SC1=S` here?
A: inconclusive: 29.1 µM [rising, single point]

Q: For `COc1ccccc1CNC(=O)CN1C(=O)NC(c2ccccc2)(c2ccc(C)c(C)c2)C1=O` (stereo unspecified), which Potency is on record?
A: inconclusive: 29.1 µM [cytotoxic, single point]

Q: For `Cc1ccc(C(c2nnnn2C(C)(C)C)N(Cc2ccco2)Cc2cccs2)cc1` (stereo unspecified), which Potency is on record?
A: active: 16.4 µM

Q: For `O=C(COc1cc(Cl)c(Cl)cc1Cl)Nc1ccncc1`, which Potency is on record?
A: inconclusive: 29.1 µM [cytotoxic, single point]

Q: With `CN(C)CCCN(C(=O)CCOc1ccccc1)c1nc2c(F)cccc2s1` as the molecule, how does the Potency read?
A: inconclusive: 7.31 µM [cytotoxic, partial curve, poor fit]

Q: With `CC(COc1ccccc1)N1CCC(CO)(CCc2ccccc2)CC1` (stereo unspecified) as the molecule, how does the Potency read?
A: inactive

Q: Which Potency does the source give for `Cc1cc(C)cc(Nc2cc(C(=O)NCCCN(Cc3ccccc3)C(C)C)c3ccccc3n2)c1` here?
A: inconclusive: 20.6 µM [cytotoxic, single point]

Q: For `COC(=O)CC1Oc2ccc(F)cc2-n2cc(-c3ccc(Cl)cc3)nc21` (stereo unspecified), which Potency is on record?
A: inactive

Q: For `COc1ccc(-c2cc(C(F)(F)F)nc(-n3ccnc3C)n2)cc1`, which Potency is on record?
A: inconclusive: 29.1 µM [cytotoxic, single point]

Q: Which Potency does the source give for `Cc1ccc(Sc2ccc([N+](=O)[O-])cc2[N+](=O)[O-])nc1` here?
A: inconclusive: 20.6 µM [rising, single point]

Q: With `CCOC(=O)C1=C(C)NC(SCC(N)=O)=C(C#N)C1c1cccs1` (stereo unspecified) as the molecule, how does the Potency read?
A: inconclusive: 20.6 µM [cytotoxic, single point]

Q: For `COc1ccc(NC(=O)CN2CCCN(S(=O)(=O)c3ccc(Br)cc3)CC2)c(OC)c1`, which Potency is on record?
A: inconclusive: 20.6 µM [cytotoxic, single point]

Q: With `CC(=O)Nc1ccc(S(=O)(=O)N(C)CCOCc2ccccc2)cc1` as the molecule, how does the activity change, negative = cytotoxic read?
A: inconclusive: -54%

Q: With `O=C(NCC(Cl)c1ccc2ccccc2c1)c1c(F)cccc1F` (stereo unspecified) as the molecule, how does the Potency read?
A: inactive

Q: With `CCOc1cccc(CN2CCC(n3nccc3NC(=O)C3CCCC3)CC2)c1` as the molecule, how does the Potency read?
A: inactive

Q: Which Potency does the source give for `COc1ccc(/C=N/Nc2cn[nH]c(=O)c2Cl)cc1` here?
A: active: 7.31 µM

Q: Which Potency does the source give for `O=C1NC(=Nc2ccccc2)S/C1=C\c1cccn1-c1ccccc1` here?
A: active: 5.17 µM

Q: Which Potency does the source give for `CN(Cc1ccccc1)C(=O)C1CCCN(Cc2ccc(Cl)cc2)C1` (stereo unspecified) here?
A: inconclusive: 23.1 µM [cytotoxic, single point]

Q: Which Potency does the source give for `CC1CC(=O)N(C)c2ccc([N+](=O)[O-])cc2N1` (stereo unspecified) here?
A: inactive

Q: With `COc1ccc(-n2c(SCCNCCO)nc3sc4c(c3c2=O)CCCC4)cc1` as the molecule, how does the Potency read?
A: inconclusive: 29.1 µM [cytotoxic, single point]

Q: Which Potency does the source give for `Cc1cc(C)cc(OCC(=O)OCC(=O)Nc2cc(S(=O)(=O)N3CCOCC3)ccc2Cl)c1` here?
A: inactive

Q: For `Cc1cc2cc(C#N)c(N3CCOCC3)nc2cc1Cl`, which Potency is on record?
A: inactive

Q: Which Potency does the source give for `CSCC[C@H](NC(=O)OC(C)(C)C)C(=O)N/N=C/c1cccc2nccnc12` here?
A: inactive

Q: Which Potency does the source give for `CN1CCN(C(=O)CSc2nc(-c3cccs3)cc(-c3cccs3)c2C#N)CC1` here?
A: inconclusive: 29.1 µM [cytotoxic, single point]

Q: With `C=CCOc1c(Cl)cc(CNc2ccc(N(C)C)cc2)cc1OC` as the molecule, how does the Potency read?
A: inconclusive: 18.4 µM [cytotoxic, single point]

Q: With `COc1ccc(C(=O)NC(=C(Cl)Cl)S(=O)(=O)c2ccc(C)cc2)cc1` as the molecule, how does the Potency read?
A: inconclusive: 29.1 µM [cytotoxic, single point]

Q: For `COc1cc(C(=O)Oc2ccccc2/C=N/NC(=O)c2ccc(C)c(Cl)c2)cc(OC)c1OC`, which Potency is on record?
A: inconclusive: 2.59 µM [cytotoxic, full curve, poor fit]

Q: With `CCC1C(=NO)C(CC)C(c2ccccc2)NC1c1ccccc1` (stereo unspecified) as the molecule, how does the Potency read?
A: inconclusive: 23.1 µM [cytotoxic, single point]

Q: Which Potency does the source give for `C=C1C(=O)CC2=C1[C@](Cc1ccc(F)cc1)(C(=O)OC)N(C(=O)c1ccccc1)C2` here?
A: inconclusive: 20.6 µM [cytotoxic, single point]

Q: Which activity change, negative = cytotoxic does the source give for `O=C(OC1CCOC1=O)C1CCN(S(=O)(=O)c2ccccc2)CC1` (stereo unspecified) here?
A: inconclusive: -19.7%

Q: Which Potency does the source give for `O=C(CCc1ccc(S(=O)(=O)N2CCOCC2)cc1)Nc1nc(COc2ccccc2)cs1` here?
A: active: 5.17 µM

Q: Which Potency does the source give for `CN(CC(=O)Nc1ccc(F)c(F)c1F)C(=O)Cc1ccc2c(c1)OCCO2` here?
A: inactive

Q: Which Potency does the source give for `CCN(CC)S(=O)(=O)c1nnc(NC(=O)c2ccccc2Cl)s1` here?
A: inactive

Q: With `COC(=O)c1c(C(=O)OC)c2c(-c3ccccc3)cc3cccc1n32` as the molecule, how does the Potency read?
A: inconclusive: 20.6 µM [cytotoxic, single point]

Q: Which Potency does the source give for `Cc1ccc(S(=O)(=O)N2CCOCC2)cc1C(=O)Nc1ccc(N2CCCCCC2)cc1` here?
A: active: 3.66 µM

Q: For `Cc1ccc(-c2nnc(NC(=O)c3ccc([N+](=O)[O-])o3)o2)c(C)c1`, which Potency is on record?
A: inconclusive: 18.4 µM [cytotoxic, single point]

Q: Which Potency does the source give for `O=C(Nc1nc2ccc(F)cc2s1)c1cccc(S(=O)(=O)N2CCc3ccccc32)c1` here?
A: inconclusive: 18.4 µM [cytotoxic, single point]

Q: Which Potency does the source give for `CC(C)[C@@H]1O[C@H](CCc2ccccc2)CC2=C1C(=O)OC(C)(C)O2` here?
A: inactive

Q: With `O=C(CCCn1c(=O)[nH]c2ccc(Br)cc2c1=O)N1CCN(c2cccc(Cl)c2)CC1` as the molecule, how does the Potency read?
A: inconclusive: 23.1 µM [cytotoxic, single point]

Q: For `CCCCCCSc1ccc([C@@H]2[C@H]3C(=O)N(CC)C(=O)[C@H]3[C@]3(C(=O)OC)CCCCN23)cc1OC`, which Potency is on record?
A: inconclusive: 32.6 µM [cytotoxic, single point]

Q: Which Potency does the source give for `CN(CC(=O)Nc1ccccc1Br)C(=O)c1ccccc1OCc1ccc(Cl)cc1` here?
A: inconclusive: 20.6 µM [cytotoxic, partial curve, poor fit]

Q: Which Potency does the source give for `COc1cc(OC)cc(C(=O)Nc2ccc3nc4n(c(=O)c3c2)CCCC4)c1` here?
A: inactive

Q: For `CN(Cc1ccccc1)S(=O)(=O)c1ccc(NC(=O)c2ccccc2C(=O)O)cc1`, which Potency is on record?
A: inactive

Q: Which Potency does the source give for `CCN(CC)S(=O)(=O)c1ccc(Cl)c(NC(=O)c2ccc(C#N)cc2)c1` here?
A: inconclusive: 23.1 µM [cytotoxic, single point]

Q: With `CCOc1ccc(-c2cn3c(n2)sc2cc(C(=O)NCCCN4CCCCC4)ccc23)cc1` as the molecule, how does the Potency read?
A: inconclusive: 18.4 µM [cytotoxic, single point]

Q: For `CC1(C)CC(=O)C=C(c2ccc(COC(=O)/C=C/c3ccccc3)cc2)C1=O`, which Potency is on record?
A: inactive

Q: With `Cc1[nH]c2ccccc2c1/C=C/C(=O)c1ccccc1` as the molecule, how does the Potency read?
A: inconclusive: 29.1 µM [cytotoxic, single point]

Q: Which Potency does the source give for `CCOC(=O)N1CCN(Cc2nc3cc([N+](=O)[O-])ccc3n2CC)CC1` here?
A: inactive

Q: With `CCOC(=O)Cn1nc(/C=C/c2ccc(C)cc2)ccc1=O` as the molecule, how does the Potency read?
A: inconclusive: 25.9 µM [cytotoxic, single point]

Q: With `CCOc1cc(S(=O)(=O)n2nc(C)cc2C)ccc1Br` as the molecule, how does the Potency read?
A: inactive

Q: Which Potency does the source give for `c1ccc2c(c1)oc1c(-c3cccc4nccn34)cccc12` here?
A: inconclusive: 29.1 µM [cytotoxic, single point]

Q: For `CC(C)C(=O)N1CCCC1(C)C(=O)Nc1ccc2c(c1)OCO2` (stereo unspecified), which Potency is on record?
A: inactive

Q: For `CCCCCCCCCCOC(=O)Cn1c(COc2ccccc2C)[n+](C)c2ccccc21`, which Potency is on record?
A: inconclusive: 29.1 µM [cytotoxic, single point]

Q: With `CCc1noc(C)c1C(=O)Nc1nc(-c2ccc(Cl)cc2Cl)cs1` as the molecule, how does the Potency read?
A: inconclusive: 23.1 µM [cytotoxic, single point]

Q: For `CCCc1nc2ccccc2c(C(=O)OCC(=O)NCc2ccc3c(c2)OCO3)c1CC`, which Potency is on record?
A: inconclusive: 29.1 µM [cytotoxic, single point]

Q: With `COc1ccc(C2C=C(c3ccccc3)Nc3nnnn32)cc1` (stereo unspecified) as the molecule, how does the Potency read?
A: inactive

Q: For `CC(=O)Oc1ccc(-c2ccc(C(=O)NCCc3ccc(S(N)(=O)=O)cc3)cc2)cc1`, which Potency is on record?
A: inconclusive: 32.6 µM [cytotoxic, single point]

Q: For `COc1ccccc1C(=O)Nc1ccc2c(c1)nc(CCNC(=O)c1ccco1)n2C`, which Potency is on record?
A: active: 1.64 µM

Q: For `Cc1ccc(NC(=O)c2oc3ccccc3c2COC(C)C)cc1S(=O)(=O)N1CCOCC1`, which Potency is on record?
A: inconclusive: 23.1 µM [cytotoxic, single point]

Q: With `O=C(c1ccccn1)c1conc1C(=O)c1ccc(Br)cc1` as the molecule, how does the Potency read?
A: inactive

Q: Which Potency does the source give for `Nc1ccccc1SC(CC(=O)c1ccccc1)c1cccc([N+](=O)[O-])c1` (stereo unspecified) here?
A: inconclusive: 29.1 µM [cytotoxic, single point]

Q: Which Potency does the source give for `CCc1ccc2oc(C(=O)Nc3cccnc3)c(C)c2c1` here?
A: inconclusive: 32.6 µM [cytotoxic, single point]

Q: For `COc1ccc(CN(C)C(=O)c2ccc3c(=O)n4c(nc3c2)CCC4)c(OC)c1`, which Potency is on record?
A: inconclusive: 5.17 µM [rising, full curve]

Q: Which Potency does the source give for `CC1Cc2ccccc2N1C1=NS(=O)(=O)c2ccccc21` (stereo unspecified) here?
A: inactive

Q: With `CN(C)CC(=O)N1c2ccccc2CCc2ccc(NC(=O)c3ccc(N)cc3)cc21` as the molecule, how does the Potency read?
A: inactive

Q: With `COc1ccc(NS(=O)(=O)c2cc(NC(=O)[C@@H](NC(=O)c3ccccc3)C(C)C)ccc2C)cc1` as the molecule, how does the Potency read?
A: active: 8.2 µM

Q: For `Nc1[nH]c(C(=O)c2ccccc2)c(-c2ccncc2)c1C(=O)NCc1ccc(Cl)cc1`, which Potency is on record?
A: inactive

Q: For `Cn1c(=O)c2c(nc(N3CCOCC3)n2Cc2ccccc2Cl)n(C)c1=O`, which Potency is on record?
A: inactive

Q: For `COCCCNC(=O)CCCn1c(=O)c2ccccc2n(CC(=O)Nc2ccc(C)cc2Cl)c1=O`, which Potency is on record?
A: inactive

Q: With `COc1cc(/C=C2\SC(=Nc3ccccc3)N(Cc3ccco3)C2=O)ccc1OC(C)C(=O)O` (stereo unspecified) as the molecule, how does the Potency read?
A: inconclusive: 29.1 µM [cytotoxic, single point]
